Data published in PubChem BioAssay (NCATS).
Inconclusive results, whose numbers are uncertain, are shown with a selection of clear calls. A potency beside an inconclusive call is a rough fit, not a confirmed value. Activity calls are given as the source filed them. Calls follow the shape of the full dose curve. Peptide text beside a SMILES is read from it. * marks the point of attachment. Cbz = O=C(OCc1ccccc1)*; CH2Cl = ClC*

Assay: Confirmatory qHTS for activators (rescue) of SARS-CoV-2 Cytopathic Effect (CPE) (AID 1508606); also: nearly all actives have a fitted effect of over 70% in size
Conditions: Vero E6 SARS-CoV-2 CPE rescue, viability luminescence; series mostly up to 20 µM
Potency is read from the fitted curve at half-maximal effect.

| SMILES | Potency |
| --- | --- |
| CN1CCN(C(=O)c2ccc(Nc3nccc(-c4cccs4)n3)cc2Cl)CC1 | inconclusive: 10 µM [activator, partial curve] |
| CC(C)C[C@H](NC(=O)CNC(=O)OCc1ccccc1)C(=O)N[C@@H](Cc1ccccc1)C(=O)CCl (Cbz-Gly-Leu-Phe-CH2Cl) | active: 1 µM |
| CCCCCCCCC(=O)N[C@H](CN1CCCC1)[C@H](O)c1ccc2c(c1)OCCO2 | active: 8.91 µM |
| CCN(CC)CCN(Cc1ccc(-c2ccc(C(F)(F)F)cc2)cc1)C(=O)Cn1c(SCc2ccc(F)cc2)nc(=O)c2c1CCC2 | inconclusive: 1.78 µM [activator, partial curve] |
| CCCCCCCCCCCCc1ccc(S(=O)(=O)Nc2nncs2)cc1 | inactive |
| CC(C)CCC[C@@H](C)[C@H]1CC[C@H]2[C@@H]3CC=C4C[C@@H](OC(=O)NCCN(C)C)CC[C@]4(C)[C@H]3CC[C@]12C | inconclusive: 11.2 µM [activator, partial curve] |
| Cc1cc(O[C@@H](CCC(F)(F)F)c2ccc(C(=O)NCCC(=O)O)cc2)cc(C)c1-c1ccc(C(C)(C)C)cc1 | inconclusive: 3.55 µM [activator, full curve] |
| Cn1cc(S(=O)(=O)c2ccc(Cl)cc2)c2cccc(N3CCNCC3)c21 | inconclusive: 5.62 µM [activator, partial curve] |
| CC1(C)CC[C@]23CO[C@@]4(CCC5[C@@]6(C)CC[C@H](O[C@@H]7OC[C@H](O[C@@H]8O[C@H](CO)[C@@H](O)[C@H](O)[C@H]8O[C@@H]8OC[C@@H](O)[C@H](O)[C@H]8O)[C@H](O)[C@H]7O[C@@H]7O[C@H](CO)[C@@H](O)[C@H](O)[C@H]7O)[C@@](C)(CO)C6CC[C@@]5(C)[C@]4(C)C[C@H]2O)[C@@H]3C1 (some centres not stated) | inactive |
| CC(C)C[C@H](NC(=O)[C@H](Cc1ccccc1)NC(=O)OCc1ccccc1)C(=O)C=O | active: 8.91 µM |
| COCCNCc1ccc(-c2cc3nccc(Oc4ccc(NC(=O)C5(C(=O)Nc6ccc(F)cc6)CC5)cc4F)c3s2)nc1 | inconclusive: 3.55 µM [activator, single point] |
| O=C1NC(=O)c2cc(Nc3ccc(F)cc3)c(Nc3ccc(F)cc3)cc21 | inconclusive: 3.55 µM [activator, partial curve, poor fit] |
| O=C(/C=C/c1ccc(Cl)cc1)N1CCC2(CC1)CN(Cc1ccc(Cl)c(Cl)c1)C(=O)O2 | inconclusive: 10 µM [activator, partial curve] |
| COc1cc2nc(N3CCC(N4CCCCC4)CC3)nc(NC3CCCCCC3)c2cc1OC | inconclusive: 3.16 µM [activator, partial curve] |
| CC/C(=C(/CC)c1ccc(O)c(CN(CC)CC)c1)c1ccc(O)c(CN(CC)CC)c1 | active: 8.91 µM |
| C[C@@H]1O[C@@H](O[C@H]2[C@H](OC(=O)[C@]34CCC(C)(C)C[C@H]3C3=CCC5[C@@]6(C)CC[C@H](O[C@@H]7O[C@H](CO[C@@H]8OC[C@H](O)[C@H](O)[C@H]8O)[C@@H](O)[C@H](O)[C@H]7O)C(C)(C)C6CC[C@@]5(C)[C@]3(C)C[C@H]4O)OC[C@@H](O)[C@@H]2O)[C@H](O)[C@H](O[C@@H]2OC[C@](O)(CO)[C@H]2O)[C@H]1O[C@@H]1OC[C@H](O)[C@H](O[C@@H]2OC[C@@H](O)[C@H](O)[C@H]2O)[C@H]1O (some centres not stated) | inconclusive: 0.758 µM [activator, full curve] |
| OCC(CO)(CO)NCC(O)Cn1c2ccc(Cl)cc2c2cc(Cl)ccc21 (configuration not stated) | inconclusive: 11.2 µM [activator, single point] |

Rewritten with bars between the fields: part of the list above
SMILES | Potency
CC(C)C[C@H](NC(=O)CNC(=O)OCc1ccccc1)C(=O)N[C@@H](Cc1ccccc1)C(=O)CCl (Cbz-Gly-Leu-Phe-CH2Cl) | active: 1 µM
CCCCCCCCC(=O)N[C@H](CN1CCCC1)[C@H](O)c1ccc2c(c1)OCCO2 | active: 8.91 µM
O=C(/C=C/c1ccc(Cl)cc1)N1CCC2(CC1)CN(Cc1ccc(Cl)c(Cl)c1)C(=O)O2 | inconclusive: 10 µM [activator, partial curve]
